These are yes or no findings as the source states them, for the method shown. A result given as binding can be weak or reduced; the word gives no strength.
Assays:
Experiment in all cases: pull-down
[1] = target: GST-sed5p(L272P) SNARE-motif (budding yeast) (UniProt Q01590)
[2] = target: GST-sed5p(L276P) SNARE-motif (budding yeast) (UniProt Q01590)
[3] = target: GST-tagged SNARE-motif of wild-type Sed5p (budding yeast) (UniProt Q01590)

Amino acid sequences for entries named in this document (tags omitted). A change or cut given only in a name is not applied to a line headed by its entry. Chains listed by the source or under a name are the forms on record and can include a tag or linker. Residues count along the entry.
UniProt Q01590: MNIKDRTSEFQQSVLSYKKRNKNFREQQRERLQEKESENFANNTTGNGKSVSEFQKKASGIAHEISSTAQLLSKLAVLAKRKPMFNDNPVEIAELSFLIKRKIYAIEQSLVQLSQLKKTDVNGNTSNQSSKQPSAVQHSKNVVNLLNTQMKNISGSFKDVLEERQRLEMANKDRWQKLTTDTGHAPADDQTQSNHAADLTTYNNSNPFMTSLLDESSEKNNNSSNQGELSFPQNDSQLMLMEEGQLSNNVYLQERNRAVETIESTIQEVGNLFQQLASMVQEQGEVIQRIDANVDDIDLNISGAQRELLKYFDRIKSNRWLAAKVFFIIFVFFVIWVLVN
GST-tagged SNARE-motif of wild-type Sed5p: residues 211-320 of Q01590
UniProt P22214: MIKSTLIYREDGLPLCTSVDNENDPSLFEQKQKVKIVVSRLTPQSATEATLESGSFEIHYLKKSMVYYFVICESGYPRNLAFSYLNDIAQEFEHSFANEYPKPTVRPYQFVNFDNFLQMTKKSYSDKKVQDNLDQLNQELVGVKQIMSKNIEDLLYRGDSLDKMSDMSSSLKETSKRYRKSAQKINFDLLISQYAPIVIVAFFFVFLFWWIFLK

Measured: binding

purified recombinant Sec22p (from UniProt P22214)
binds: all assays above
